# Test results: publication PMC11062894, “Protein-based bandpass filters for controlling cellular signaling with chemical inputs” (Nature Chemical Biology, 2023)
# Certain results were filed several times, with different values. The list is limited to them. There may be further records. For some assays here: Results that share an entry read as repeated measurements on other runs, samples or individuals. For some assays here: Values given together seem to repeat one measurement; a mean can stand among them.
# Test system: GEMS receptors with CBPA11 (BclXL–LD3 and BclXLhigh variants), STAT3-driven SEAP in HEK293T cells
# Test: GEMS SEAP reporter assay, CBPA11 (BclXLhigh, LD3-v and BclXL-v variants) with A-1155463
# Details: representative data and independent repeats 1, 2 (triplicates)
compound,measurement,setting,value
CN(C)CC#Cc1ccc(OCCCc2sc(N3CCc4cccc(C(=O)Nc5nc6ccccc6s5)c4C3)nc2C(=O)O)c(F)c1 [A-1155463],SEAP (U/L),"Figure 4c, A-1155463 1 nM","11.808, 7.963, 8.217, 63.1842, 65.5998, 59.3672, 39.8592, 46.1014, 58.9505 U/L"
same,SEAP (U/L),"Figure 4c, A-1155463 3.16 nM","9.546, 10.8583, 12.6623, 97.0888, 90.7768, 104.54, 76.8281, 71.2211, 88.1111 U/L"
same,SEAP (U/L),"Figure 4c, A-1155463 10 nM","36.3624, 49.2548, 52.4537, 208.602, 193.911, 207.639, 185.512, 161.246, 182.675 U/L"
same,SEAP (U/L),"Figure 4c, A-1155463 31.6 nM","141.491, 160.654, 159.439, 344.989, 313.054, 303.564, 274.497, 276.861, 326.649 U/L"
same,SEAP (U/L),"Figure 4c, A-1155463 100 nM","249.571, 271.902, 289.151, 384.041, 407.382, 386.207, 383.122, 323.856, 380.578 U/L"
same,SEAP (U/L),"Figure 4c, A-1155463 316 nM","340.239, 334.632, 369.332, 436.35, 400.122, 424.545, 357.507, 363.639, 364.31 U/L"
same,SEAP (U/L),"Figure 4c, A-1155463 1000 nM","331.969, 319.567, 336.626, 325.401, 275.57, 309.58, 271.876, 243.941, 325.246 U/L"
same,SEAP (U/L),"Figure 4c, A-1155463 3162 nM","292.223, 279.844, 308.976, 222.337, 207.226, 209.948, 183.653, 165.849, 206.73 U/L"
same,SEAP (U/L),"Figure 4c, A-1155463 10000 nM","160.251, 171.032, 170.98, 59.8594, 64.0775, 78.9584, 67.4486, 63.1947, 66.8306 U/L"
same,SEAP (U/L),"Figure 4e, A-1155463 1 nM",15.8984 U/L and 17.1285 U/L
same,SEAP (U/L),"Figure 4e, A-1155463 3.16 nM","20.2858 U/L, 18.8152 U/L, 21.9462 U/L"
same,SEAP (U/L),"Figure 4e, A-1155463 10 nM","60.5453 U/L, 59.4708 U/L, 50.2269 U/L"
same,SEAP (U/L),"Figure 4e, A-1155463 10000 nM","83.9348 U/L, 89.2399 U/L, 91.9583 U/L"
same,SEAP (U/L),"Figure 4d, A-1155463 10 nM","20.832, 27.2622, 23.1658, 47.5018, 29.428 U/L"
same,SEAP (U/L),"Figure 4d, A-1155463 31.6 nM","33.464, 42.2092, 42.8737, 76.3295, 63.3534, 66.044 U/L"
same,SEAP (U/L),"Figure 4d, A-1155463 100 nM","48.651 U/L, 63.7971 U/L, 59.6436 U/L"
same,SEAP (U/L),"Figure 4d, A-1155463 316 nM","48.2346, 52.2009, 43.4433, 118.052, 78.9581 U/L"
same,SEAP (U/L),"Figure 4d, A-1155463 1000 nM","25.921, 26.9233, 27.2207, 30.4572, 52.4796 U/L"
same,SEAP (U/L),"Figure 4d, A-1155463 3162 nM","13.3246, 14.7352, 12.3848, 17.4648, 36.8819 U/L"
same,SEAP (U/L),"Figure 4d, A-1155463 10000 nM","6.891, 7.321, 5.776, 11.7577, 18.7583 U/L"
